Test results as given in paper PMC12040169 (PLOS Biology, 2025).
The other results are listed elsewhere or left out.

Each compound was assayed on T1, CTL2-GFP (C. trachomatis L2/434/Bu, GFP-expressing). Details: bulk GFP, single well; 28.5 h, 10 µM; inhibitor.
T1 construct: L2/434/Bu, GFP-expressing
Set-up: species or system HeLa; Intracellular C. trachomatis growth in HeLa cells, bulk GFP fluorescence relative to DMSO

SMILES | % of control remaining [%]
Cc1nc(-c2ccccc2)sc1CNC(=O)Cc1ccccc1F [CBK092372] | 82.085
CCc1cc(CNC(=O)c2ccc(C)c(-n3nc(C)cc3C)c2)on1 [CBK281557] | 113.616
CS(=O)(=O)N(Cc1ccccc1)c1ccc(C(=O)Nc2ccccc2Cl)cc1 [CBK262745] | 120.924
COc1ccc(S(=O)(=O)Nc2ccccc2C(=O)O)cc1OC [CBK042368] | 129.224
COc1ccc(CN(C)c2c(C)nc3c(OCC(=O)C(C)(C)C)cccn23)cc1 [CBK147458] | 140.223
Cc1cc(C)n(CCCC(=O)N2CCOCC(O)(CN3CCCC3)C2)n1 (stereo not drawn) [CBK306550] | 96.888
COc1ccc(C(NC(=O)CSCc2cccc(C(=O)O)c2)c2ccc(OC)cc2)cc1 [CBK296680] | 157.883
CC1CCCC(C)N1C(=O)CN1C2CCC1CC(O)(c1ccco1)C2 (stereo not drawn) [CBK284043] | 138.871
FC(F)(F)c1ccc(CN2CCCN(c3ccnc(OCC4COc5ccccc5O4)n3)CC2)cc1 (stereo not drawn) [CBK083233T] | 83.2802
Cc1ccc(C2=NN(C(=N)SC3CC(=O)N(c4ccc(C(=O)O)cc4)C3=O)C(c3ccc(Cl)cc3)C2)cc1 (stereo not drawn) [CBK262472] | 103.167
Cc1cccc(-c2nc(CN(C)CC(=O)NC(C)C)no2)c1 [CBK305109] | 115.231
CC(C)C(NC(=O)C1C=CCN1S(C)(=O)=O)c1cccs1 (stereo not drawn) [CBK282701] | 146.715
COc1cc(Cn2c(=O)[nH]c3ncc(-c4ccco4)nc32)cc(OC)c1OC [CBK064461] | 87.9029
Cc1cccc(C)c1-c1cn2ccnc2c(NC2CCOCC2)n1 [CBK037311] | 218.347
Cn1[nH]c(CO)c(Cc2c(Cl)cccc2Cl)c1=O [CBK092278T] | 155.373
O=C1CC(c2cccs2)CC(=O)C1=CNCCN1CCNCC1 (stereo not drawn) [CBK264785] | 131.98
C[C@@H]1CN(C(=O)c2ccc3[nH]cnc3c2)C[C@H](C)O1 [CBK200120] | 73.6813
CC(=O)C1=C(O)C(=O)N(CCCC(=O)O)C1c1cccc([N+](=O)[O-])c1 (stereo not drawn) [CBK263801] | 115.169
CCNC(=O)Nc1cc2cccnc2nc1-c1cccc(C(F)(F)F)c1 [CBK070645] | 103.28
Cc1ccc2c(c1)cc(C)c1nn(CC(=O)N3CCCCC3)c(=O)n12 [CBK283870] | 158.502
Cc1ccc(OCC(=O)Nc2ccc3c(c2)oc2ccccc23)cc1[N+](=O)[O-] [CBK266036] | 169.082

Some values from the list:
Entry for `O=C1CC(c2cccs2)CC(=O)C1=CNCCN1CCNCC1` (stereo not drawn) [CBK264785] under % of control remaining [%]: 131.98
Entry for `CCNC(=O)Nc1cc2cccnc2nc1-c1cccc(C(F)(F)F)c1` [CBK070645] under % of control remaining [%]: 103.28
